The results in this text go back to US20070287718A1 (priority 2003, published 2007).

The structures appear in SMILES notation.

The subject of experiment [1] is PKC.
In experiment [2] the test system is XG1. Description: cells. The note with it: Homo sapiens, 48 h, read-out: IC50 of proliferation inhibition.
Experiment [3] concerns XG6. Description: cells. The conditions noted are these: Homo sapiens, XG6, 48 h, read-out: IC50 of proliferation inhibition.
Experiment [4] has as its system MDN. Description: cells. The conditions noted are these: Homo sapiens, 48 h, read-out: IC50 of proliferation inhibition.

In experiment [1], `CC[C@H](CO)Nc1nc(NCc2ccccc2)c2ncn(C(C)C)c2n1` (racemic) [roscovitine, 2-[(1-ethyl-2-hydroxyethyl)amino]-6-benzylamine-9-isopropylpurine] showed an IC50 greater than 50 µM.
As to `CC[C@H](CO)Nc1nc(NCc2ccccc2)c2ncn(C(C)C)c2n1` (single isomer, unassigned) [CYC202, 2-(1-R-hydroxymethylpropylamino)-6-benzylamino-9-isopurine], the IC50 turned out to be 15 µM in experiment [2], 15 µM in experiment [3] and 6 µM in experiment [4].
